PubChem BioAssay AID1259308 | NCATS, 2017

Aim: 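Knock-downs that increase output of a recombinant reporter protein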 (primary screen)
System: human HEK293 embryonic kidney cells stably expressing firefly luciferase (HEK-CMV-Luc2-Hygro)
Reagent: single siRNA against human genes, 0.8 pmol siRNA per well
Time to read-out: 72 h
Detection: 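Reporter luminescence and viable-cell signal on separate replicate plates, given as percent of non-targeting control and median/MAD z-scores, plus per-cell luciferase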
Scale: total luciferase, z-score: higher = more reporter protein produced
Call rule: 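Active when the median/MAD z-score for overall luciferase is greater than 3; a gene was taken forward for validation with new siRNAs if at least two of its three siRNAs passed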
Calls: active = raised luciferase; inactive = no rise
The whole screen tested about 59,000 reagents; this is an unselected part. Over the whole deposit, about 1,510 (2.6%) are marked active. 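Calls use total luciferase alone and ignore viability, so some active siRNAs may act by altering cell number.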 The numbers tell different reagents against one gene apart. Further read-outs or replicates are left out here.

total luciferase, z-score, by gene and reagent
UBXN4: #1 -0.0243 inactive; #2 -2.32 inactive; #3 -0.0941 inactive
FECH: #1 0.453 inactive; #2 0.0961 inactive; #3 1.44 inactive
ANAPC16: #1 2.07 inactive; #2 1.53 inactive; #3 -0.0834 inactive
ID1: #1 0.64 inactive; #2 0.099 inactive; #3 1.19 inactive
CEACAM22P: #1 -0.111 inactive; #2 0.689 inactive; #3 1.1 inactive
MMP19: #1 -0.266 inactive; #2 0.0352 inactive; #3 -0.165 inactive
SLC25A5: #1 2.62 inactive; #2 -1.19 inactive; #3 1.1 inactive

6 successive entries already listed, for reference:
total luciferase, z-score, by gene and reagent
ANAPC16: #1 2.07 inactive; #2 1.53 inactive; #3 -0.0834 inactive
ID1: #1 0.64 inactive; #2 0.099 inactive; #3 1.19 inactive

Next records follow:
total luciferase, z-score, by gene and reagent
NCDN: #1 2.49 inactive; #2 3.07 active; #3 0.45 inactive
TMSB4X: #1 -0.785 inactive; #2 0.691 inactive; #3 0.0597 inactive
CDC27: #1 -0.615 inactive; #2 -0.514 inactive; #3 -1.81 inactive
TMEM160: #1 -1.29 inactive; #2 3.84 active; #3 -1.14 inactive
NEK11: #1 -0.403 inactive; #2 -0.87 inactive; #3 1.66 inactive
DAPL1: #1 0.996 inactive; #2 0.17 inactive; #3 3.58 active
SERPINB12: #1 -0.366 inactive; #2 -0.437 inactive; #3 -0.884 inactive
LOC729218: #1 0.629 inactive; #2 -0.352 inactive; #3 0.0815 inactive; #4 0.694 inactive; #5 0.234 inactive; #6 -0.142 inactive
IKBIP: #1 1.14 inactive; #2 0.565 inactive; #3 0.236 inactive
NOA1: #1 -0.108 inactive; #2 0.59 inactive; #3 -0.835 inactive
ATP2A3: #1 -0.251 inactive; #2 0.0116 inactive; #3 0.286 inactive
